Our source for the AC50 values is PubChem BioAssay AID901 (National Center for Advancing Translational Sciences (NCATS), 2007).

Structures are written as SMILES. The list shows a part of the results. These are further read-outs of the screen, such as a control signal, another cell line or another target. No call is given for them. Most of these compounds were active or inconclusive in the main read-out, so they are no random draw. Potencies come from curve fits of mixed quality, noted in brackets.

The test can be described thus: qHTS Assay for Identifying the Cell-Membrane Permeable IMPase Inhibitors. The conditions noted are these: CHO-M1 cells, IP1 accumulation, HTRF TR-FRET ratio; measured here: donor channel 620 nm AC50.
One may read the AC50 as the concentration at which the activity in the assay is half-maximal. Take `COc1ccc(NC(=O)c2ccc(C(=O)c3cc(OC)ccc3OC)cc2)cc1`: the AC50 was 31.6 µM [rising, single point].

For `CCN(CC)CCCN(Cc1cc2cc3c(cc2[nH]c1=O)OCCO3)C(=O)Nc1ccccc1`, the AC50 was 0.00398 µM [falling, full curve, poor fit].

With `COc1ccccc1CNC(=O)c1cccc(Nc2nc3ccccc3n3nnnc23)c1`, the AC50 was 25.1 µM [rising, single point].

As for `Cn1c(=O)c2c(nc(N3CCOCC3)n2CCCNC2=NCCC2)n(C)c1=O`, the concentration at half-maximal activity (AC50) was 3.98 µM [rising, full curve].

In the case of `COc1cc(NC(=O)Cn2c(C)cc3ccccc3c2=O)cc(OC)c1OC`, the AC50 was 0.0316 µM [rising, full curve, poor fit].

For `O=C(O)C1CCCCC1C(=O)NCCc1ccncc1` (stereo not given), the AC50 was 3.16 µM [rising, partial curve].

`CCOC(=O)CSC1=Nc2ccccc2C2=NC(CC(=O)NCc3ccc(OC)cc3)C(=O)N12` (stereo not given): the AC50 is 0.2 µM [falling, partial curve, poor fit].

`COc1cccc2sc(Nc3nnc(-c4cccs4)o3)nc12`: the concentration at half-maximal activity (AC50) is 0.00631 µM [rising, full curve, poor fit].

Regarding `Cc1nc(SCCC(=O)O)c2ccccc2n1`, the AC50 was 12.6 µM [rising, partial curve].

With `CCCCn1nc(NC(=O)c2cccs2)c2cc3ccccc3nc21`, the AC50 was 6.31 µM [rising, single point].

`CCOc1ccc(-c2nc(SCC(=O)Nc3ccc4c(c3)OCCO4)c(-c3ccc(F)cc3)[nH]2)cc1`: the AC50 was 2.82 µM [falling, full curve, poor fit].

Take `CCN(CC)c1ccc(-n2nc3cc(C)c(NC(=O)c4ccccc4F)cc3n2)cc1`: the AC50 was 0.631 µM [falling, full curve].

For `COc1ccc(-c2cc(C(F)(F)F)nc(SCC(=O)NCCc3ccc(OC)c(OC)c3)n2)cc1`, the AC50 was 5.62 µM [rising, single point].

For the compound `Cc1ccc(NC2=NC(=S)N(CC#N)C23CCCCC3)cc1`, the AC50 is 0.2 µM [rising, single point].

For the compound `CCC(C)NC(=O)C1CCC(=O)N(c2cc(OC)c(OC)c(OC)c2)C1c1ccc(OC)cc1` (stereo not given), the AC50 was 0.355 µM [falling, partial curve, poor fit].

Regarding `CCc1ccccc1-n1cnc2cc(C(=O)O)ccc21`, the half-maximal activity concentration (AC50) is 0.0251 µM [falling, full curve, poor fit].

Regarding `COc1cc(/C=c2\sc3nc(-c4ccncc4)nn3c2=O)ccc1OC(C)=O`, the AC50 was 10 µM [falling, partial curve].

As for `O=C(Nc1cccc2ccccc12)C12CC3CC(C1)CC(n1cnc([N+](=O)[O-])n1)(C3)C2`, the concentration at half-maximal activity (AC50) is 0.158 µM [falling, full curve, poor fit].

With `Cc1cc(C)c(C#N)c(SCc2cc3c(cc2Cl)OCO3)n1`, the concentration at half-maximal activity (AC50) is 0.398 µM [rising, partial curve, poor fit].

As for `Cc1ccc(-c2ncccc2OC(=O)C23CC4CC(CC(C4)C2)C3)cc1`, the concentration at half-maximal activity (AC50) was 2.51 µM [falling, partial curve, poor fit].

On to `Nc1c(C(=O)Nc2ccccc2F)sc2nc(Cc3ccccc3)cc(C(F)(F)F)c12`, for which the AC50 was 31.6 µM [rising, single point].

Regarding `Cc1cccc(C)c1N/C=C/c1onc(C)c1[N+](=O)[O-]`, the AC50 is 0.0398 µM [falling, full curve, poor fit].

Consider `Cc1ccccc1OCC(=O)Nc1sc(C(=O)Nc2cccc(C)c2C)c(C)c1C#N`, for which the concentration at half-maximal activity (AC50) was 5.01 µM [rising, single point].

As to `COc1ccc(-c2[nH]c(-c3ccccc3)nc2SCC(=O)Nc2ccc3c(c2)OCO3)cc1`, the half-maximal activity concentration (AC50) is 22.4 µM [falling, single point].

As for `N/C(=N\OC(=O)c1cc(Cl)ccc1Cl)c1cccnc1`, the AC50 is 31.6 µM [rising, single point].

For the compound `COC(=O)c1cn(-c2ccccc2)c(C)c1C(=O)OC`, the half-maximal activity concentration (AC50) is 3.16 µM [falling, single point].

In the case of `CCc1ccc(NC(=O)N(CCCOC(C)C)C2CCN(C(C)=O)CC2)cc1`, the AC50 was 0.501 µM [falling, full curve].

With `Cc1ccc(NC(=O)Cc2nc(CSc3nnc(-c4ccc5c(c4)OCO5)o3)cs2)cc1`, the half-maximal activity concentration (AC50) was 31.6 µM [falling, single point].

Turning to `Cc1ccc(S(=O)(=O)N2C(=O)CCC2C(=O)Nc2ccc3c(c2)OCCO3)cc1` (stereo not given), the AC50 was 35.5 µM [falling, single point].

Consider `O=C(CSc1nc(Nc2ccccc2)nc(N2CCOCC2)n1)N1CCc2ccccc21`, for which the AC50 is 10 µM [falling, partial curve, poor fit].

For the compound `Cn1c(=O)c2[nH]c(-c3ccccc3)c(O)c2n(C)c1=O`, the AC50 is 12.6 µM [falling, partial curve].

Regarding `CC1(C)Cc2cccc(OCC(O)CNCc3ccccn3)c2O1` (stereo not given), the half-maximal activity concentration (AC50) is 3.16 µM [rising, partial curve, poor fit].

Regarding `COc1ccc(N(CC(=O)Nc2cc(C)ccc2OC)S(=O)(=O)c2c(C)noc2C)cc1`, the concentration at half-maximal activity (AC50) was 0.0398 µM [rising, full curve, poor fit].

In the case of `Cc1ccc(C)n1-c1ccccc1N`, the concentration at half-maximal activity (AC50) was 0.2 µM [rising, partial curve].

Regarding `CC(=O)Nc1ccc(NC(=O)C(F)(F)F)cc1`, the AC50 is 0.2 µM [falling, full curve].

For `Cc1ccc(-c2nc(NC(=O)CSc3nnnn3-c3ccccc3)ns2)cc1`, the AC50 is 12.6 µM [rising, partial curve].

Take `CSc1nnnn1CCn1nnnc1SC`: the half-maximal activity concentration (AC50) was 39.8 µM [rising, partial curve, poor fit].

For the compound `Cc1ccccc1C(=O)c1cccn1CC(=O)N1CCCCCC1`, the AC50 is 0.794 µM [falling, full curve, poor fit].

Turning to `CN1CCN(c2ncnc3c2[nH]c2ccc(F)cc23)CC1`, the AC50 is 12.6 µM [falling, partial curve, poor fit].

Turning to `Cn1c(NC(=O)/C=C/c2ccccc2)cc(=O)n(C)c1=O`, the AC50 was 3.55 µM [rising, partial curve].

Turning to `N#Cc1c(SCC(N)=O)nc(-c2ccccc2)c2c1CCCC2`, the concentration at half-maximal activity (AC50) is 5.01 µM [rising, partial curve, poor fit].

Take `N#CCC(=O)Nc1ccccc1C(=O)O`: the AC50 was 0.02 µM [falling, full curve, poor fit].

Turning to `Cc1ccc(OCCN2C(=O)CSC2=O)cc1`, the concentration at half-maximal activity (AC50) was 0.501 µM [falling, full curve, poor fit].

Regarding `COc1ccc(-c2[nH]c(-c3ccc(C(=O)O)cc3)nc2-c2ccccc2)cc1`, the AC50 is 20 µM [rising, partial curve, poor fit].

For `O=S(=O)(NCCC(c1ccc(F)cc1)c1ccco1)c1ccccc1` (stereo not given), the concentration at half-maximal activity (AC50) was 35.5 µM [rising, single point].

Consider `O=C(NC1CCCCCCC1)c1ccc2c(c1)N(Cc1ccc(F)cc1)C(=O)CS2=O` (stereo not given), for which the AC50 was 0.0316 µM [rising, full curve, poor fit].

`CC(C)CC(=O)Nc1cccc2c1C(=O)N(c1ccccc1)C2=O`: the AC50 was 0.1 µM [rising, single point].

Consider `O=C(c1ccc(F)cc1F)N(Cc1ccccn1)Cc1ccco1`, for which the AC50 was 0.0126 µM [rising, full curve, poor fit].

For `Clc1nc(-c2ccccc2)cc(-c2ccccc2)n1`, the AC50 is 0.501 µM [falling, full curve, poor fit].

As to `Cc1cccc(-n2c(SCC(N)=O)nnc2-c2ccccn2)c1C`, the AC50 is 0.631 µM [falling, single point].

For the compound `CCOC(=O)C(NC(=O)Cc1ccccc1)(Nc1cc(C)on1)C(F)(F)F` (stereo not given), the AC50 is 0.251 µM [rising, single point].

As to `Cc1nn(Cc2ccc(Cl)cc2Cl)c(C)c1NC(=O)CCl`, the AC50 was 12.6 µM [falling, single point].

As for `Cc1noc(C)c1C(=O)OCC(=O)c1c[nH]c2ccccc12`, the AC50 was 3.98 µM [falling, single point].

In the case of `Cc1ccc(S(=O)(=O)N(C)C)cc1-n1c(SCC(=O)Nc2ccc(F)cc2)nc2ccccc2c1=O`, the concentration at half-maximal activity (AC50) was 0.0251 µM [falling, full curve, poor fit].

In the case of `Cc1ccc(C(=O)Nc2ccc(S(=O)(=O)N3CCN(C)CC3)cc2)o1`, the AC50 is 8.91 µM [falling, partial curve, poor fit].

For `CCOC(=O)N1CCN(C(=O)c2nn(-c3ccc(C)cc3)c(=O)c3c2c2ccccc2n3C)CC1`, the half-maximal activity concentration (AC50) was 25.1 µM [rising, single point].

With `COC(=O)[C@@H](NC(=O)NC1CCCc2ccccc21)C(C)C` (stereo not given in full), the concentration at half-maximal activity (AC50) is 0.501 µM [rising, partial curve, poor fit].

In the case of `O=C(O)c1ccc(S(=O)(=O)c2ccccc2)cc1`, the concentration at half-maximal activity (AC50) is 0.0251 µM [falling, full curve, poor fit].

Turning to `Cc1onc(-c2ccccc2)c1C(=O)Nc1nnc(-c2ccncc2)s1`, the concentration at half-maximal activity (AC50) was 12.6 µM [rising, partial curve, poor fit].

As for `COc1ccc(-c2noc(-c3ccc(Br)o3)n2)cc1OC`, the concentration at half-maximal activity (AC50) was 31.6 µM [rising, single point].

As to `COc1ccc(Nc2ccc3c(c2)=NC2(CCCCC2)[N+]=3[O-])cc1`, the half-maximal activity concentration (AC50) was 12.6 µM [falling, single point].

As for `COc1ccc(CCNC(=O)c2cc(=O)[nH]c3ccc(Br)cc23)cc1OC`, the half-maximal activity concentration (AC50) was 35.5 µM [rising, single point].

In the case of `O=[N+]([O-])c1ccc(COc2cccc(CNc3ccc(F)cc3)c2)cc1`, the AC50 is 5.62 µM [falling, single point].

`COc1ccccc1-c1cc(-c2ccccc2)nc(SC(C(N)=O)c2ccccc2)c1C#N` (stereo not given): the concentration at half-maximal activity (AC50) was 31.6 µM [rising, single point].

In the case of `CC(=O)Nc1ccc(/C=C/c2noc(-c3ccccc3O)n2)cc1`, the half-maximal activity concentration (AC50) is 0.447 µM [falling, partial curve].
